Data: PubChem BioAssay AID1688 (National Center for Advancing Translational Sciences (NCATS), 2009)
Hit rate of the full screen: of about 220,000 compounds, about 2,400 (1.1%) were called active. Inconclusive means that the source gave no clear call. Such entries were picked first, then a sample of the others. Calls come from the whole dose curve; as a rule, active = well fitted inhibition curve with a large enough effect; inconclusive = small, poorly fitted or top-dose-only effect, or effect the other way; inactive = no such curve, though single readings can be large or run the other way. A potency beside an inconclusive call is a rough fit, not a confirmed value.

test: qHTS Multiplex Assay to Identify Dual Action Probes in a Cell Model of Huntington: Aggregate Formation (GFP); details: PC12 HttQ103-GFP aggregates, Acumen cytometry, 40 h; activity change, negative = inhibition: at 46.1 µM (top of the series) unless noted; note: nearly all actives have a fitted effect of over 60% in size
How it was run: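 Aggregate formation scored by laser-scanning cytometer (488 excitation, 500–530 emission) in lysed PC12 cells expressing Q103-GFP after 100 nM tebufenozide induction; library tested in dose series, with ATPLite reagent added in the multiplex.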
% is set by controls: 0 for no effect and ±100 for the full control effect; potency is the fitted concentration of half-maximal effect.

| SMILES | activity change, negative = inhibition | Potency |
| --- | --- | --- |
| Cc1cc2c(cc1C)-c1nnnn1C(C)(C)C2 | inactive: 3.5% | – |
| O=S1(=O)c2cccc3cccc(c23)N1Cc1nnc(-c2ccccc2Br)o1 | – | inconclusive: 7.94 µM [inhibitor, partial curve] |
| O=C(CSc1nnc(-c2ccccc2O)n1Cc1ccccc1)NNC(=O)c1ccccc1O | – | inconclusive: 7.94 µM [inhibitor, partial curve] |
| CC(C)Nc1nc(NC(C)C)nc(N(C#N)CCOc2ccc(Cl)cc2Cl)n1 | – | inconclusive: 35.5 µM [inhibitor, single point] |
| CC1CC(N(C(=O)c2ccc(Cl)cc2)c2ccccc2)c2ccccc2N1C(=O)c1ccco1 (stereo unspecified) | – | inconclusive: 20 µM [inhibitor, partial curve, poor fit] |
| COc1ccccc1-n1cnnc1SCC(=O)c1c[nH]c2ccccc12 | inactive: 4.18% | – |
| COc1ccc(-c2c[n+]3c(n2-c2ccccc2)CCCCC3)cc1 | – | inconclusive: 11.2 µM [inhibitor, partial curve] |
| C=CCOc1c(Br)cc(CNn2cn[nH]c2=S)cc1OC | inactive: 9.87% | – |
| Oc1ccccc1-c1cc(C(F)(F)C(F)F)[nH]n1 | – | inconclusive: 35.5 µM [inhibitor, partial curve] |
| O=S(=O)(c1ccccc1)c1nc(-c2ccco2)oc1NCCCn1ccnc1 | inactive: 11.4% | – |
| Brc1ccc(C2C3=C(Nc4ncnn42)c2ccccc2OC3c2ccncc2)cc1 (stereo unspecified) | – | active: 10 µM |
| O=S(=O)(c1cnc[nH]1)N1CCc2ccccc21 | inactive: -2.7% | – |
| CC1CCN(S(=O)(=O)c2ccc(N/N=C(/C#N)C(N)=O)cc2)CC1 | – | inconclusive: 35.5 µM [inhibitor, single point] |
| O=C(NCCC1=CCCCC1)NC12CC3CC(CC(C3)C1)C2 | – | active: 22.4 µM |
| Cc1cccc2nc(=S)n(C(=O)c3ccco3)n12 | inactive: 13.4% | – |
| Cc1ccc2c(n1)sc1c(-c3ccccc3)c(C#N)c(N)nc12 | – | active: 12.6 µM |
| CC1(C)CC(=O)C2=C(C1)N=C1SCCC(=O)N1C2c1cccc([N+](=O)[O-])c1 (stereo unspecified) | – | inconclusive: 7.08 µM [activator, full curve, poor fit] |
| Cc1nc2scc(-c3ccc(C(C)(C)C)cc3)c2c(=O)n1N | – | inconclusive: 22.4 µM [inhibitor, single point] |
| CCOC(=O)N1CCN(C(=O)CN(c2ccc(C)cc2)S(=O)(=O)c2c(C)noc2C)CC1 | – | inconclusive: 1 µM [activator, full curve] |
| Cc1cc(NC(=O)CSc2nc3cc(Cl)ccc3s2)no1 | inactive: -16.5% | – |
| COc1ccccc1-c1coc2cc(O)cc(O)c2c1=O | – | inconclusive: 0.891 µM [inhibitor, full curve] |

Ordered by formula weight (low to high): part of the list above

| SMILES | activity change, negative = inhibition | Potency |
| --- | --- | --- |
| COc1ccc(-c2c[n+]3c(n2-c2ccccc2)CCCCC3)cc1 | – | inconclusive: 11.2 µM [inhibitor, partial curve] |
| C=CCOc1c(Br)cc(CNn2cn[nH]c2=S)cc1OC | inactive: 9.87% | – |
| CC1(C)CC(=O)C2=C(C1)N=C1SCCC(=O)N1C2c1cccc([N+](=O)[O-])c1 (stereo unspecified) | – | inconclusive: 7.08 µM [activator, full curve, poor fit] |
